Paper doi:10.1101/358176
No constants are given. Whether binding was seen depends on the method and setting. Binding seen in cells or lysates may run through a third protein. Sequences can lack the tags named with a protein.

Target: T1, GFP-tagged dl (dorsal) (Drosophila melanogaster) (UniProt P15330)
T1 sequence: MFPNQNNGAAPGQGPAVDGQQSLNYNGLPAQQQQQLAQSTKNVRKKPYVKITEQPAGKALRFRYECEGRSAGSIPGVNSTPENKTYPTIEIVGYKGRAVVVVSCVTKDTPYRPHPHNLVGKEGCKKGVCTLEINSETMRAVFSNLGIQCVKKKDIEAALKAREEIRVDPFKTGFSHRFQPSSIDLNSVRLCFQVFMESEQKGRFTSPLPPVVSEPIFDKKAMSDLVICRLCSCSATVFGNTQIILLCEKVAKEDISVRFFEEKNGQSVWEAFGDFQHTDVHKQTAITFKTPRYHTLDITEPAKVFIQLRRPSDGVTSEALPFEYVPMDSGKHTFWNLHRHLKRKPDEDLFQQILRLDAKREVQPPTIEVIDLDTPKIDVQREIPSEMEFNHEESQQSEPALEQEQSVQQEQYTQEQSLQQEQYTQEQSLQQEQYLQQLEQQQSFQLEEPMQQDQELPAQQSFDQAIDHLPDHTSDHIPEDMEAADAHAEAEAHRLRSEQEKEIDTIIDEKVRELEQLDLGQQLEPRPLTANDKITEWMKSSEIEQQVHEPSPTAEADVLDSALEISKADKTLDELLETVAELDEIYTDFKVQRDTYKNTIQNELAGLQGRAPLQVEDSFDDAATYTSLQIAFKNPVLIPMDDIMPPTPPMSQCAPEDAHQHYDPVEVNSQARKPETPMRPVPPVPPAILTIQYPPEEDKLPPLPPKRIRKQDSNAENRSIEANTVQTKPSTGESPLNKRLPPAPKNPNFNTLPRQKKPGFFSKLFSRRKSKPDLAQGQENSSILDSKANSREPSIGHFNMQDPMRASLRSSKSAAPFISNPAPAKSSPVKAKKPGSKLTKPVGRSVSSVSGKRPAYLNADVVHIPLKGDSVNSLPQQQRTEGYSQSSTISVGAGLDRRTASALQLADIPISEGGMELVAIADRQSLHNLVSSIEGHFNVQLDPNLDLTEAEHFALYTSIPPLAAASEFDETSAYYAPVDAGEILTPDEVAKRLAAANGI
Assay: co-IP

**Q.** V5-tagged gp83 of Kallithea virus was tested. Which binding did it give?
**A.** Its binding is “no binding”.
